According to PubChem BioAssay AID504834 (National Center for Advancing Translational Sciences (NCATS), 2011):
Among all 320,000 compounds or so, about 22,000 (6.9%) were called active. Only results without a clear call are listed here; the source files them as inconclusive. Calls come from the whole dose curve; as a rule, active = well fitted inhibition curve with a large enough effect; inconclusive = small, poorly fitted or top-dose-only effect, or another doubt; inactive = no such curve, though single readings can be large or run the other way.

Assay: Primary qHTS for delayed death inhibitors of the malarial parasite plastid, 96 hour incubation
Conditions: P. falciparum luciferase reporter growth
Potency is the fitted concentration of half-maximal effect.

| SMILES | Potency |
| --- | --- |
| COc1cccc(C(=O)N(c2cc(C)cc(C)c2)C2CCN(C(=O)OC(C)(C)C)CC2)c1 | inconclusive: 11.7 µM |
| CCOc1ncccc1C(=O)NCC1(N2CCOCC2)CCCCC1 | inconclusive: 11.7 µM |
| CCc1cc(C(=O)NCC2(N3CCCCC3)CCCCC2)sc1C | inconclusive: 9.28 µM |
| O=C(NCC1(N2CCOCC2)CCCCC1)c1cc(Br)ccc1Cl | inconclusive: 18.5 µM |
| CCCN1CCC(Nc2cc(OC)cc(OC)c2)CC1 | inconclusive: 18.5 µM |
| CC(C)(C)OC(=O)N1CCC(N(C(=O)c2ccccc2)c2ccc(Cl)cc2)CC1 | inconclusive: 1.85 µM |
| O=C(NCC1(N2CCCCC2)CCCCC1)c1cccc(C(F)(F)F)c1 | inconclusive: 13.1 µM |
| CC(C)c1ccc(C(=O)NCC2(N3CCOCC3)CCCCC2)cc1 | inconclusive: 11.7 µM |
| O=C(NCC1(N2CCCCC2)CCCCC1)c1cccc([N+](=O)[O-])c1 | inconclusive: 9.28 µM |
| N#CC1(Nc2ccccc2)CCN(CCc2ccccc2)CC1 | inconclusive: 5.86 µM |
| CN(C)c1cccc(C(=O)NCC2(N3CCCCC3)CCCCC2)c1 | inconclusive: 0.928 µM |
| Cc1cc(C)cc(N(C(=O)c2ccccc2)C2CCN(C(=O)OC(C)(C)C)CC2)c1 | inconclusive: 10.4 µM |
| COc1ccc(Cl)cc1C(=O)NCC1(N2CCOCC2)CCCCC1 | inconclusive: 3.7 µM |
| CC(C)(C)OC(=O)N1CCC(N(C(=O)c2ccccc2)c2ccc(F)cc2)CC1 | inconclusive: 11.7 µM |
| CCOC(=O)N1CCC(Nc2cccc(C)c2)CC1 | inconclusive: 18.5 µM |
